According to US20230124862A1, “BISMUTH THIOL COMPOUNDS AND COMPOSITIONS AND METHODS OF TREATING MICROBIAL CO-INFECTIONS” (Microbion Corporation, priority 2020, published 2023):

Test system: MucilAir fully differentiated human airway epithelium

## C1C[S][Bi]([S]CC[S][Bi]2[S]CC[S]2)[S]1 [BisEDT, Bismuth-1,2-ethanedithiol]
Particulate or solubilized form
  highest non-toxic concentrations as fold the MIC: 25-345 fold
Solubilized BisEDT, vs M. avium
  highest tested concentration (20.83 μg/mL) fold higher than the MIC: 2.5-10 fold
Solubilized BisEDT, vs most tested CF bacterial isolates
  highest tested concentration (20.83 ug/mL) fold higher than the MICs: 20-347 fold
